{"source": "paper PMC12040169", "about": "(PLOS Biology, 2025)", "note": "This is one part of the list."}
{"test_system": "T1, CTL2-GFP (C. trachomatis L2/434/Bu, GFP-expressing)", "T1 construct": "L2/434/Bu, GFP-expressing", "parameters": "species or system HeLa; Intracellular C. trachomatis growth in HeLa cells, bulk GFP fluorescence relative to DMSO", "conditions": "bulk GFP, single well; 28.5 h, 10 µM; inhibitor", "units": {"% of control remaining": "%"}}
{"compound": "CCCn1nnc(NC(=O)C(C)Oc2ccc(Cl)cc2Cl)n1", "note": "(stereo not drawn) [CBK266772]", "% of control remaining": 126.918}
{"compound": "Cn1c(=O)oc2cc(S(=O)(=O)N3CCN(C4CCCCC4)CC3)ccc21", "note": "[CBK268865]", "% of control remaining": 129.195}
{"compound": "COc1ccc(CN2CCCN(S(=O)(=O)c3ccc(C(=O)c4ccccc4)cc3)CC2)cc1F", "note": "[CBK062855]", "% of control remaining": 136.093}
{"compound": "COc1cc(C(=O)NCc2ccc(-c3csnn3)cc2)cc(OC)c1OC", "note": "[CBK149308]", "% of control remaining": 127.093}
{"compound": "Brc1csc(CNc2ccc3cn[nH]c3c2)c1", "note": "[CBK021216]", "% of control remaining": 122.721}
{"compound": "Cc1onc(-c2ccccc2Cl)c1C(=O)Nc1ccc(CC(=O)O)cc1", "note": "[CBK269623]", "% of control remaining": 159.758}
{"compound": "CCCCCn1c(O)nnc1SCc1csc(CS(=O)(=O)c2ccc(Cl)cc2)n1", "note": "[CBK007176]", "% of control remaining": 131.77}
{"compound": "O=C(c1ccccc1)c1ccc2n1CCC2C(=O)Nc1ccccc1F", "note": "(stereo not drawn) [CBK300530]", "% of control remaining": 160.261}
{"compound": "COc1ccc(C(=O)Nc2nc3c(C)c(C)ccc3s2)cc1", "note": "[CBK291210]", "% of control remaining": 98.9497}
{"compound": "CC(=O)N1CCOc2ccccc21", "note": "[CBK050388]", "% of control remaining": 119.382}
{"compound": "Cn1cncc1CN1C[C@@H]2CCCN2C[C@@H]1Cc1ccccc1", "note": "[CBK283027]", "% of control remaining": 138.427}
{"compound": "Cc1ccc2nc(NC(=O)C(C)(C)C)nc(O)c2c1", "note": "[CBK021975]", "% of control remaining": 157.43}
{"compound": "NC(=O)c1c(NC(=S)NC(NC(=O)c2ccco2)C(Cl)(Cl)Cl)sc2c1CCCC2", "note": "(stereo not drawn) [CBK261055]", "% of control remaining": 89.4268}
{"compound": "COc1ccc(C2CCN(Cc3ccncc3)CC2)cc1", "note": "[CBK283563]", "% of control remaining": 82.7154}
{"compound": "C[C@@H](Nc1nccnc1-c1ccc(C(=O)N2CCOCC2)cc1)c1ccccc1", "note": "[CBK037058]", "% of control remaining": 89.8053}
{"compound": "OC12CCCCC1CN(Cc1nc3ccccc3[nH]1)CC2", "note": "(stereo not drawn) [CBK282995]", "% of control remaining": 111.137}
{"compound": "COc1ccc([C@@]23CC[C@@H](NC(=O)Nc4cccc5nsnc45)C[C@@H]2N(C)CC3)cc1OC", "note": "[CBK038874T]", "% of control remaining": 96.0201}
{"compound": "Cc1ccc(C(=O)Nc2cccc(CCc3ccncc3)c2)c(=O)n1C", "note": "[CBK285556]", "% of control remaining": 89.5393}
{"compound": "Nc1ncc(-c2cncnc2)nc1-c1ccc(CCC(=O)O)cc1", "note": "[CBK064120]", "% of control remaining": 201.902}
{"compound": "CCn1c2cc(C)oc2c2cnn(CC(=O)N3CCCC3)c(=O)c21", "note": "[CBK284215]", "% of control remaining": 121.794}
{"compound": "Cc1ccc(C2CCCN2C(=O)c2cccn(CC(=O)Nc3ccc(F)cc3)c2=O)cc1C", "note": "(stereo not drawn) [CBK286528]", "% of control remaining": 133.035}
{"compound": "COc1ccc(C2Oc3cccnc3N(CCCN(C)C)C2=O)cc1", "note": "(stereo not drawn) [CBK007694]", "% of control remaining": 145.208}
{"compound": "O=C(O)COc1ccc(Br)cc1/C=N/Nc1ccccn1", "note": "[CBK262369]", "% of control remaining": 100.978}
{"compound": "NNC(=O)C(NC(=O)c1ccccc1)c1n[nH]c(=O)c2ccccc12", "note": "(stereo not drawn) [CBK261144]", "% of control remaining": 100.903}
{"compound": "CCOc1ccc(-c2ccnc(N3CCCC(C)(O)C3)n2)cc1C(=O)O", "note": "(stereo not drawn) [CBK307652]", "% of control remaining": 116.594}
{"compound": "CC(NC(=O)C1C2CCC(CC2)C1C(=O)O)c1ccncc1", "note": "(stereo not drawn) [CBK287061]", "% of control remaining": 124.387}
{"compound": "Clc1ccc(Cl)c(-c2ccc(CNCCCN3CCOCC3)o2)c1", "note": "[CBK278190C]", "% of control remaining": 141.552}
{"compound": "CN1CCN(C(C(=O)O)c2c[nH]c3cc(OCc4ccccc4)ccc23)CC1", "note": "(stereo not drawn) [CBK286654]", "% of control remaining": 146.251}
{"compound": "Nc1nc(-c2ccc(Cl)cc2)c(CC(=O)O)s1", "note": "[CBK287188]", "% of control remaining": 136.605}
{"compound": "CC(C)[C@@H](CO)Nc1nc(-c2cccc(Br)c2)cnc1N", "note": "[CBK063758]", "% of control remaining": 88.5512}
{"compound": "O=C(Cc1csc(-c2ccc(Cl)cc2)n1)Nc1cccnc1", "note": "[CBK107300]", "% of control remaining": 102.071}
{"compound": "COc1nc2ccccc2nc1CCc1nc(-c2ccccc2)no1", "note": "[CBK269840]", "% of control remaining": 154.711}
{"compound": "CC(C)Nc1ccc(C(=O)N2CCC(N3CCOCC3)CC2)cn1", "note": "[CBK304353]", "% of control remaining": 139.418}
{"compound": "O=C(c1ccc2ccccc2c1)C12CN3CN(CN(C3)C1)C2", "note": "[CBK009031]", "% of control remaining": 125.722}
{"compound": "O=C1CN(C(=O)NCCc2c[nH]c3ccccc23)CCN1", "note": "[CBK155866]", "% of control remaining": 99.7963}
{"compound": "Cc1cc(C)cc(NS(=O)(=O)c2ccc(NC(=O)C(C)Oc3ccc(Cl)cc3Cl)cc2)c1", "note": "(stereo not drawn) [CBK264894]", "% of control remaining": 64.3813}
{"compound": "Cn1cc(C(=O)NC(Cc2ccsc2)c2cccnc2)cn1", "note": "(stereo not drawn) [CBK285118]", "% of control remaining": 103.57}
{"compound": "CN1CCN(CCCOc2ccc(OCc3ccccc3)cc2)CC1", "note": "[CBK265077]", "% of control remaining": 120.73}
{"compound": "Cc1onc(-c2ccccc2)c1CNC(=O)CC1CCCCC1", "note": "[CBK144078]", "% of control remaining": 118.323}
{"compound": "NS(=O)(=O)c1ccc(CNS(=O)(=O)Cc2ccccc2)cc1", "note": "[CBK228048]", "% of control remaining": 115.915}
{"compound": "O=C(NCc1cc(Br)ccc1F)C1CC(=O)N(Cc2ccccn2)C1", "note": "(stereo not drawn) [CBK305242]", "% of control remaining": 108.244}
{"compound": "CN1CCC(N(C)C(=O)Nc2ccc3[nH]ccc3c2)C1", "note": "(stereo not drawn) [CBK156006]", "% of control remaining": 82.1802}
{"compound": "O=C1COc2ccccc2CCCC[C@@H]2CN(C(=O)CCN3CCCC3=O)CC[C@H]2N1", "note": "[CBK292044]", "% of control remaining": 138.482}
{"compound": "O=C1COc2ccccc2C/C=C/CC2(CCNCC2)C(=O)NCCN1", "note": "[CBK291996]", "% of control remaining": 121.329}
{"compound": "COC(=O)c1ccc(NC(=O)Cn2nnc(-c3ccc(CN4CCOCC4)cc3)n2)cc1", "note": "[CBK134589]", "% of control remaining": 115.709}
{"compound": "Cc1ccc(S(=O)(=O)N2CCC(OC(N)=O)CC2)cc1", "note": "[CBK003369]", "% of control remaining": 94.9126}
{"compound": "O=C(O)CCc1nn2c3ccccc3n(CCN3CCCCC3)c2nc1=O", "note": "[CBK267519]", "% of control remaining": 116.498}
{"compound": "O=C(CCCOc1ccccc1)NCc1ccc(OC2CCNCC2)cc1", "note": "[CBK028427T]", "% of control remaining": 109.01}
{"compound": "CCC1CCCCN1C(=O)c1cc2cc(Cl)ccc2[nH]1", "note": "(stereo not drawn) [CBK074329]", "% of control remaining": 139.771}
{"compound": "Cc1cccc(CN(CC(=O)Nc2ccc3c(c2)OCCO3)S(=O)(=O)c2ccc(Cl)cc2)c1", "note": "[CBK264910]", "% of control remaining": 90.2893}
{"compound": "O=C(O)CCN1C(=O)c2ccc(NC(=O)Cc3cccs3)cc2C1=O", "note": "[CBK268240]", "% of control remaining": 113.512}
